Record: PubChem BioAssay AID1259279 (Sanger Institute, 2017)
In all, the deposit lists 794 reagents; this is a part drawn at random. Over the whole deposit, 11 (1.4%) were called active. 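Calls reflect knock-down alone in the vehicle arm, not drug synergy.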 Not all columns of the deposit are shown. No sequences are given here. Not stated in the record: the amount of reagent, the time to read-out.

- Test: 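Kinases that colorectal cancer cells need to survive, alone or with drugs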 (primary screen)
- Cells: LS180 human colorectal cancer cells
- Knock-down reagent: siRNA pool against human genes
- Challenge: anchor drug BYL719 at 1 µM, cetuximab at 5 µg/ml or trametinib at 10 nM, or DMSO vehicle only
- Measured: 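Cell viability versus a non-targeting pool, as a fraction and as a robust z-score from replicate means, plus a synergy score for each of three drugs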
- Reading the numbers: viability z-score, no drug: higher = more viable cells after knock-down
- Active means: 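Essential (active) calls need a no-drug viability z-score lower than -3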
- Meaning of the calls: active = essential (knock-down alone cuts viability); inactive = no change without drug

Knock-down of ULK1 (unc-51 like autophagy activating kinase 1) resulted in: viability z-score, no drug 0.115; inactive.
Depletion of PI4KA (phosphatidylinositol 4-kinase alpha) resulted in: viability z-score, no drug 0.86; inactive.
Depletion of MYLK3 (myosin light chain kinase 3) gave: viability z-score, no drug 0.618; inactive.
WHR1 (winged helix repair factor 1) gave viability z-score, no drug 0.86; inactive.
After knock-down of PRKACB (protein kinase cAMP-activated catalytic subunit beta), the record shows viability z-score, no drug 0.86; inactive.
Depletion of RIPK2 (receptor interacting serine/threonine kinase 2) resulted in: viability z-score, no drug 0.353; inactive.
OBSCN gave viability z-score, no drug 0.557; inactive.

2 entries from above, set out differently.
WHR1 (winged helix repair factor 1)
- viability z-score, no drug: 0.86
- outcome: inactive

PRKACB (protein kinase cAMP-activated catalytic subunit beta)
- viability z-score, no drug: 0.86
- outcome: inactive

The listing continues:
Depletion of EFNA4 (ephrin A4) gave: viability z-score, no drug -0.148; inactive.
With knock-down of BRSK1 (BR serine/threonine kinase 1), the record shows viability z-score, no drug 0.56; inactive.
After knock-down of NEK5 (NIMA related kinase 5), the screen gave viability z-score, no drug 0.86; inactive.
Depletion of MAP3K10 (mitogen-activated protein kinase kinase kinase 10) resulted in: viability z-score, no drug 0.86; inactive.
After knock-down of PDGFRB (platelet derived growth factor receptor beta), the screen gave viability z-score, no drug -1.83; inactive.
